Results: the supplement of paper PMC10849652
This is one part of the list.

The chains behind the UniProt entries cited, without tags or fusion partners. Where a name states a change or a piece, a line headed by the entry shows the natural chain unless it says otherwise.
UniProt A6NCN2: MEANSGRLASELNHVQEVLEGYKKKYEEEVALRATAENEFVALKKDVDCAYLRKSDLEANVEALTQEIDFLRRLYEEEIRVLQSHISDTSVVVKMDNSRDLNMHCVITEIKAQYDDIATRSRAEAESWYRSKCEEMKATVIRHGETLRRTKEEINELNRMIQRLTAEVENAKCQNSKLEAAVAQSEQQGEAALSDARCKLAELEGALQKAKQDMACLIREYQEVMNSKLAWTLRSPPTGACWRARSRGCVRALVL
UniProt O75037: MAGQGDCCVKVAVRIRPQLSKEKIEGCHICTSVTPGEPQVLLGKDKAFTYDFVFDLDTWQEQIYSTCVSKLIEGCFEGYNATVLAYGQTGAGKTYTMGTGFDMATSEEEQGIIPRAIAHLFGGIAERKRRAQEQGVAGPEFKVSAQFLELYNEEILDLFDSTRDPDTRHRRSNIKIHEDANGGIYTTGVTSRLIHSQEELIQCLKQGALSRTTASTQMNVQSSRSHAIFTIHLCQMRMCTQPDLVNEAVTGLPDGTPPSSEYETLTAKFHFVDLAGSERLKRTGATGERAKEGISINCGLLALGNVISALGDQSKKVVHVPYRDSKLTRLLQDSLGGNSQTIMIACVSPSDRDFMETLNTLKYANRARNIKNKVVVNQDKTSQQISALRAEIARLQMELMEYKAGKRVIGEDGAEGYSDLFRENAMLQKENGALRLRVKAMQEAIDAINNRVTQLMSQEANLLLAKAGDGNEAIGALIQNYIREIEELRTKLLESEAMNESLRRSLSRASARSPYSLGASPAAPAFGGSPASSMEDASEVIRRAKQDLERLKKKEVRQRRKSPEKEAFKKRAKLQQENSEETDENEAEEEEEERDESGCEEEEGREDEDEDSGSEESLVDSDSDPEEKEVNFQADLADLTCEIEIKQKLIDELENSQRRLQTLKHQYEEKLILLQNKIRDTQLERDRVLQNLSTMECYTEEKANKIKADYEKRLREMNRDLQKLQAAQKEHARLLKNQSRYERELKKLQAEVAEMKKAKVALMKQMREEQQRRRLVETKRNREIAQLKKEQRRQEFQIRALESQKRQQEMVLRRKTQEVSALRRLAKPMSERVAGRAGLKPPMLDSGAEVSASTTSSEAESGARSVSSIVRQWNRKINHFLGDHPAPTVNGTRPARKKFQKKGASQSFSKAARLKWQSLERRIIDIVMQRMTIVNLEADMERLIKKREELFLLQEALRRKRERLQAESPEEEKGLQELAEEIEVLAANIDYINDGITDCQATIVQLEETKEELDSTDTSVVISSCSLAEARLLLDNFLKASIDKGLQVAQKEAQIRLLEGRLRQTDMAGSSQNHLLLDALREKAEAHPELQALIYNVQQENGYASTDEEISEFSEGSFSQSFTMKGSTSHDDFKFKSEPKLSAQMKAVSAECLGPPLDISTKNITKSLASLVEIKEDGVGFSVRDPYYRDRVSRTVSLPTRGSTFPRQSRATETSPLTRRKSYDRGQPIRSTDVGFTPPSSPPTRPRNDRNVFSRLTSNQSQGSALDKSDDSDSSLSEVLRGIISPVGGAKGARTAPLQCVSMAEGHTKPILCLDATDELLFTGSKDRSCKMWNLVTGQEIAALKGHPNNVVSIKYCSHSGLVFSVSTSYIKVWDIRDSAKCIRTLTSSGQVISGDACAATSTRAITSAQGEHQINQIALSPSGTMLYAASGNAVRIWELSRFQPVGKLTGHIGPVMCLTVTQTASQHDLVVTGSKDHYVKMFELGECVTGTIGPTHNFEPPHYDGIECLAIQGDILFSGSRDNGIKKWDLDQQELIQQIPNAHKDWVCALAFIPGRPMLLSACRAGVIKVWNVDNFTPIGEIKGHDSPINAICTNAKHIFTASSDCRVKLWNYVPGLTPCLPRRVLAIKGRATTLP
UniProt Q9GZZ8: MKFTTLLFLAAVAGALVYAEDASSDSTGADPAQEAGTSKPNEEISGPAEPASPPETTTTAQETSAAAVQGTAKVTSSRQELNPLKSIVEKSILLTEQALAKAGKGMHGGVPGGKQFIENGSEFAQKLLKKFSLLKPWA
UniProt Q9H3R0: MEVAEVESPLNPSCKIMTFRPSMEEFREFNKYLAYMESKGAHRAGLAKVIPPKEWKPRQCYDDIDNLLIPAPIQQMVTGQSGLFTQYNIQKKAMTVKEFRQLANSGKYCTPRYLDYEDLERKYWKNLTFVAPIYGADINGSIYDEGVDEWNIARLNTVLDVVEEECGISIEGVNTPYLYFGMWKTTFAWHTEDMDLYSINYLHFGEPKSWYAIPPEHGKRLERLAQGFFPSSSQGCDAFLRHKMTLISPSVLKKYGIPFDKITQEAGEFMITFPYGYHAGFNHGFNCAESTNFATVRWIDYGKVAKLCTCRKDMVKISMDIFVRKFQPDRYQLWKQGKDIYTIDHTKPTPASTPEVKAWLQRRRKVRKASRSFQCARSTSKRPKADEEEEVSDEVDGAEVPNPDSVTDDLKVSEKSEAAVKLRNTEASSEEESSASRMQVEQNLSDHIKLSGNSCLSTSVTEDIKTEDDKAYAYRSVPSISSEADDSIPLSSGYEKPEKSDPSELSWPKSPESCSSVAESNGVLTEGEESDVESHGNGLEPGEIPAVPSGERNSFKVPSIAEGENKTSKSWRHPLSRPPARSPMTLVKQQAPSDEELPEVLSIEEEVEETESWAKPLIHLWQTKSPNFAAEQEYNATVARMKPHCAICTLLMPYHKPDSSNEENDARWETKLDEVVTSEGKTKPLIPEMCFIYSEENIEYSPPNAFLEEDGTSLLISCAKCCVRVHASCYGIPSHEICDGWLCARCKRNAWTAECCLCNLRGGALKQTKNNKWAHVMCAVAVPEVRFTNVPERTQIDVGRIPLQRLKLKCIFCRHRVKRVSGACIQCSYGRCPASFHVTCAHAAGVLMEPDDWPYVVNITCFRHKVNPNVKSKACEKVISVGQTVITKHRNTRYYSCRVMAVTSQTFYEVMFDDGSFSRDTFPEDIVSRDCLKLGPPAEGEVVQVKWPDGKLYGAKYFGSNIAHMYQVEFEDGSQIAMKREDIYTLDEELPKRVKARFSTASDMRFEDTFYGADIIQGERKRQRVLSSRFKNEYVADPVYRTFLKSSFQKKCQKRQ
UniProt Q9Y2Y9: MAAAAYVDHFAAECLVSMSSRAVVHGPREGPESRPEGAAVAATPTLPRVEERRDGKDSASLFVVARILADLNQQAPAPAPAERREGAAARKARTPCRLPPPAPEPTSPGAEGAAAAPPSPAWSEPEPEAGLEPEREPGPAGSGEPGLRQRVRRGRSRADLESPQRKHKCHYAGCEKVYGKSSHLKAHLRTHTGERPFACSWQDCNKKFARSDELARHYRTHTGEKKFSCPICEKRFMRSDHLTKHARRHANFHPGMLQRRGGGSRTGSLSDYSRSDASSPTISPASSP
UniProt Q9UMN6, whole entry, looked up: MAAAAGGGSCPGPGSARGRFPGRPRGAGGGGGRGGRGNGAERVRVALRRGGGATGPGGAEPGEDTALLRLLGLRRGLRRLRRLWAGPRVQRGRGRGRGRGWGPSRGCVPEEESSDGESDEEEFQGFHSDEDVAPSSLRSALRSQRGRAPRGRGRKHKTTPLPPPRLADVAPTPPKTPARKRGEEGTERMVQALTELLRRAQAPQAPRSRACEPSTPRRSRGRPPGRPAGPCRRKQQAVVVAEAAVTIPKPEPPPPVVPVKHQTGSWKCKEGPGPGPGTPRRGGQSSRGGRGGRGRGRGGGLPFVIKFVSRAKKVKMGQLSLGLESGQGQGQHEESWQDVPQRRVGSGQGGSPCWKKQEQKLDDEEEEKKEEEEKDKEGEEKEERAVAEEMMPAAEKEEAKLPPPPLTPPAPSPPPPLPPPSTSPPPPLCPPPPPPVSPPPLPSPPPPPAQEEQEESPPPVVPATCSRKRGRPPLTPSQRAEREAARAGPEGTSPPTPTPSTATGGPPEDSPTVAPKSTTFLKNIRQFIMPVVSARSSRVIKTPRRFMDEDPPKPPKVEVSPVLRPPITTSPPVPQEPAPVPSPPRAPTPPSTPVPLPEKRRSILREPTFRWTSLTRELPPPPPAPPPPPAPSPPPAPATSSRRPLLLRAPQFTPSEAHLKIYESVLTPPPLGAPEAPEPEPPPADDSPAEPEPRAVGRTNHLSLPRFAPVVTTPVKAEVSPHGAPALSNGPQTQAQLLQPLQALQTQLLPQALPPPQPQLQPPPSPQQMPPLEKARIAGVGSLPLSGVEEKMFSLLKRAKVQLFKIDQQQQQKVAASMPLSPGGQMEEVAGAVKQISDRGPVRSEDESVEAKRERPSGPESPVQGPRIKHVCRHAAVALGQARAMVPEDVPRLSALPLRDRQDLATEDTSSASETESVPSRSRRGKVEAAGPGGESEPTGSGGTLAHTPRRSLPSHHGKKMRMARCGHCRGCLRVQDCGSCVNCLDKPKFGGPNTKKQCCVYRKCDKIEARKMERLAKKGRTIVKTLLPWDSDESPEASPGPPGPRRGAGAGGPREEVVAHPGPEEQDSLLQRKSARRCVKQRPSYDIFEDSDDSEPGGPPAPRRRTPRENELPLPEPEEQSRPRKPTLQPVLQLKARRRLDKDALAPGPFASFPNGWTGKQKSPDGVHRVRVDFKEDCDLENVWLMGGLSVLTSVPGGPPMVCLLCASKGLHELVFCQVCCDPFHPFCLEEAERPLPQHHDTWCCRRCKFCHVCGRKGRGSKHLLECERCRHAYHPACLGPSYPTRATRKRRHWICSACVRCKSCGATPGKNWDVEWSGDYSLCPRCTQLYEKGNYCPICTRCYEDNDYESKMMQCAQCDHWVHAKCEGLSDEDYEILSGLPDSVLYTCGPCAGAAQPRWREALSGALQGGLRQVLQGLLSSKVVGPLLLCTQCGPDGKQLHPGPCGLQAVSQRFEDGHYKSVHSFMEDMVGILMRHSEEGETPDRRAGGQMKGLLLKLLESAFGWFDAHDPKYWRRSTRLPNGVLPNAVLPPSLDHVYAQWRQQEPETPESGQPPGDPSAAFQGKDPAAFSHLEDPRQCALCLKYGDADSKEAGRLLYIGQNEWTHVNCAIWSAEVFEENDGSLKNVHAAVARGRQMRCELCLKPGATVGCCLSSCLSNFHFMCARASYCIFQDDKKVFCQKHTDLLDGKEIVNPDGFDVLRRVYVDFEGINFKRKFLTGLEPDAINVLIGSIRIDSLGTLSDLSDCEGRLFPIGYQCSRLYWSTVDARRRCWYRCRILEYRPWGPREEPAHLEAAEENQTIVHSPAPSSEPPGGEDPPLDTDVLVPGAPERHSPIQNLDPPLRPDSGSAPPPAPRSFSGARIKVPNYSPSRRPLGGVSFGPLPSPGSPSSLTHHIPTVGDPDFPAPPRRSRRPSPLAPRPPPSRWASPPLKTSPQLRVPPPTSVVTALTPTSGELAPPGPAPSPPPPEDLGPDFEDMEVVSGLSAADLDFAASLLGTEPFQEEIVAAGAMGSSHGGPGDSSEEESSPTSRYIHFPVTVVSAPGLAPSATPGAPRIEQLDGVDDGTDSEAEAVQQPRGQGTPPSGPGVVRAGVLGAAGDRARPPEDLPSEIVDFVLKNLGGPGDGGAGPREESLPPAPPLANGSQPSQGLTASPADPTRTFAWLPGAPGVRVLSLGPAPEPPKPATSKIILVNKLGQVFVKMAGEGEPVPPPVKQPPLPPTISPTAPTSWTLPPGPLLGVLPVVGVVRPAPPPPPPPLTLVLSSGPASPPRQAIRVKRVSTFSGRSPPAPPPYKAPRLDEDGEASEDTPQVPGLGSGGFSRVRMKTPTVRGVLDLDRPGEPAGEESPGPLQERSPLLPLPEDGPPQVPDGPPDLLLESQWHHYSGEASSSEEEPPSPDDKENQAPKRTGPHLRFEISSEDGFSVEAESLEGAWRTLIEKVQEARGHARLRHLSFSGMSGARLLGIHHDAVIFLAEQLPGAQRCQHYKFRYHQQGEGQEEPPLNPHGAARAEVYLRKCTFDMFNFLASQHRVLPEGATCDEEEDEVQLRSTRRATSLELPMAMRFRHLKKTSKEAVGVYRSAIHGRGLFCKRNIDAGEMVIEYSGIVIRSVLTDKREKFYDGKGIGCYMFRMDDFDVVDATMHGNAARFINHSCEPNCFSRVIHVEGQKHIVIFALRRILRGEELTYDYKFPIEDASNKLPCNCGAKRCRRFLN

Legend:
Test in all cases: log2 fold change, soluble protein after heating vs DMSO (PISA); higher = thermal stabilisation; K562 lysate, 10 uM; active = over 0.2 and 3.5 SD of the protein, either way, in both replicates (recomputed)
erlotinib = compound: C#Cc1cccc(Nc2ncnc3cc(OCCOC)c(OCCOC)cc23)c1 [erlotinib]
Procedure, shortened: (§1)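 Quantification was by TMTpro 16plex LC-MS/MS with equalised channel sums, applied to the supernatant after 21,000xg for 90 min. Samples were crude K562 extract at 1 mg/mL protein in PBS pH 7.4 with 1 mM MgCl2, treated with 10 μM compound for 30 min, heated for 3 min across 48°C-58°C, pooled and brought to 0.5% NP-40 at 4°C. Values are log-two fold changes in thermal stability relative to solvent controls, from duplicates.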

[1] = compound: C1=CC(=CC=C1C2=NC3=C(N2)C=C(C=C3)C(=O)N)OC4=CC=C(C=C4)Cl
Procedure, shortened: as §1

[2] = compound: CC(C)C1=C2N=C(C=C(N2N=C1)NCC3=CC=CC=C3)NCCCCCCN
Procedure, shortened: as §1

[3] = compound: C/C(=N\NC(=O)C1=CC(=CC=C1)S(=O)(=O)N2CCOCC2)/C3=C(C=CC(=C3)Cl)O
Procedure, shortened: as §1

[4] = compound: C1=CC2=C(C=CC(=C2)/C=C\3/C(=O)NC(=NCC4=CC=CS4)S3)N=C1
Procedure, shortened: as §1

[5] = compound: C1=CC2=NC=CN=C2C=C1/C=C/3\C(=O)NC(=O)S3
Procedure, shortened: as §1

[6] = compound: C1=CC=C(C=C1)C2=NC(=C(N2)C3=CC=NC=C3)C4=CC(=C(C=C4)Cl)O
Procedure, shortened: as §1

[7] = compound: C1=CC=C2C(=C1)C3=NNC4=CC=CC(=C43)C2=O
Procedure, shortened: as §1

[8] = compound: C1CCN(C1)C(=O)NC2=CC=CC(=C2)NC3=NC=C(C(=N3)NCCC4=CN=CN4)Br
Procedure, shortened: as §1

[9] = compound: C1CN(CCC1(CC2=CC=C(C=C2)Cl)N)C3=NC=NC4=C3C=CN4
Procedure, shortened: as §1

IRAK-1-4 Inhibitor I = compound: C1COCCN1CCN2C3=CC=CC=C3N=C2NC(=O)C4=CC(=CC=C4)[N+](=O)[O-] [IRAK-1-4 Inhibitor I]
Procedure, shortened: as §1

ibrutinib = compound: C=CC(=O)N1CCC[C@@H](n2nc(-c3ccc(Oc4ccccc4)cc3)c3c(N)ncnc32)C1 [ibrutinib]
Procedure, shortened: as §1

[10] = compound: CC(=O)c1cnc2ccc(-c3cc(Cl)c(O)c(Cl)c3)nc2c1N[C@H]1CC[C@H](CN(C)C)CC1
Procedure, shortened: as §1

ralimetinib = compound: CC(C)(C)Cn1c(N)nc2ccc(-c3[nH]c(C(C)(C)C)nc3-c3ccc(F)cc3)nc21 [ralimetinib]
Procedure, shortened: as §1

[11] = compound: CC(C)(O)CC(=O)NCCn1ccc2ncnc(Nc3ccc(Oc4cccc(C(F)(F)F)c4)c(Cl)c3)c21
Procedure, shortened: as §1

[12] = compound: CC1=C(C(CC(=O)N1)C2=CC=C(C=C2)C(F)(F)F)C(=O)NC3=C(C=C4C(=C3)C=NN4)F
Procedure, shortened: as §1

[13] = compound: CC1=C(C2=C(C=C1)C(=O)C3=CC=CC=C3N2CCCN)C
Procedure, shortened: as §1

[14] = compound: CC1=C(C=C(C=C1)NC(=O)C2=CC(=CC=C2)C(C)(C)C#N)NC3=CC4=C(C=C3)N=CN(C4=O)C
Procedure, shortened: as §1

[15] = compound: CC1=C(C=C(C=C1)NC(=O)C2=CC(=CC=C2)N(C)C)NC(=O)C3=CC=C(C=C3)O
Procedure, shortened: as §1

[16] = compound: CC1=CC=C(C=C1)SC2=C3C=C(SC3=CN=C2)C(=O)N
Procedure, shortened: as §1

Measured: log2 fold change

KRT87P (UniProt A6NCN2)
inactive: erlotinib 1.92 | [1] -0.061 | [2] 0.109

KIF21B (UniProt O75037)
inactive: [3] 0 | [4] -0.065 | [5] -0.022 | [6] 0 | [7] -0.215 | [8] -0.045 | [9] -0.003 | IRAK-1-4 Inhibitor I 0.112 | ibrutinib -0.064 | [10] -0.093 | ralimetinib 0.001 | [11] -0.175 | [12] 0.05 | [13] -0.02 | [14] 0.134 | [15] -0.062 | [16] -0.2

LACRT (UniProt Q9GZZ8)
inactive: erlotinib 0.017 | [1] -0.038 | [10] -0.2 | [2] 2.36 | [16] -0.097

KDM4C (UniProt Q9H3R0)
inactive: [5] -0.16 | [6] 0.204 | IRAK-1-4 Inhibitor I 0.27 | ibrutinib 0.28 | ralimetinib -0.038 | [11] -0.467 | [12] 0.424 | [13] 0.139 | [15] 0.257

LAPTM4A (UniProt Q15012)
inactive: [3] -0.386 | [4] 0.035 | [7] 0.036 | [13] 0.279

KLF13 (UniProt Q9Y2Y9)
inactive: [14] -0.109

KIAA1549 (UniProt Q9HCM3)
inactive: [5] -0.065 | [6] -0.03 | IRAK-1-4 Inhibitor I -0.001 | ibrutinib 0.001 | ralimetinib 0.021 | [11] -0.098 | [12] 0.345 | [15] -0.021

KMT2B (UniProt Q9UMN6)
inactive: erlotinib -0.494 | [1] -0.226 | [8] -0.028 | [9] -0.015 | [2] 0.53 | [13] -0.135 | [14] -0.072
